Assay results published in the supplement of paper PMC10849652.
The list shows a part of the results.

Protein sequences, listed by entry. Tags and fused reporters are not part of them. Lines headed by an entry give the natural chain unless they say otherwise; changes in a name come on top.
UniProt Q15392: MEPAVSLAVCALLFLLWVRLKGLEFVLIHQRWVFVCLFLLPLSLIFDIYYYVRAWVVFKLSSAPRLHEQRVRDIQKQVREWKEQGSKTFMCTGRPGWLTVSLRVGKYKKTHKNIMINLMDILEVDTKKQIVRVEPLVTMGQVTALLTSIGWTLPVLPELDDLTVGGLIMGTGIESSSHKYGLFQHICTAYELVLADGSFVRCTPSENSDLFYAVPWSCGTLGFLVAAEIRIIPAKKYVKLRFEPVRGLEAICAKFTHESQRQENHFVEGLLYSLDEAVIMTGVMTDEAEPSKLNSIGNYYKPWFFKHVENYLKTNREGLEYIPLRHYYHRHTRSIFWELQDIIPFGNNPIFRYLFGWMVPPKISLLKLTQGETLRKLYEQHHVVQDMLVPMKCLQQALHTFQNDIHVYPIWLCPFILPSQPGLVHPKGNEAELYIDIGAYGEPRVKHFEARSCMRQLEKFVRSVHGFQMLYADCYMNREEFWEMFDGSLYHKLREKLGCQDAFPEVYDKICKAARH
UniProt Q9Y394: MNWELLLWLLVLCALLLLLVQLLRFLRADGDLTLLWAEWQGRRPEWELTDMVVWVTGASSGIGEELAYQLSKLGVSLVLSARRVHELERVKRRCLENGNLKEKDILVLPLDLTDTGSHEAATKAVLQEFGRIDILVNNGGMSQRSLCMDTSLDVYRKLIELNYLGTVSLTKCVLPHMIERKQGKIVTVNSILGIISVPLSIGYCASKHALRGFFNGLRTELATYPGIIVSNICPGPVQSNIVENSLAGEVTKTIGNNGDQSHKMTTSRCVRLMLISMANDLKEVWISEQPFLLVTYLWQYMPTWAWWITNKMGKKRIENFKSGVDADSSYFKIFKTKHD
UniProt Q9UBM7: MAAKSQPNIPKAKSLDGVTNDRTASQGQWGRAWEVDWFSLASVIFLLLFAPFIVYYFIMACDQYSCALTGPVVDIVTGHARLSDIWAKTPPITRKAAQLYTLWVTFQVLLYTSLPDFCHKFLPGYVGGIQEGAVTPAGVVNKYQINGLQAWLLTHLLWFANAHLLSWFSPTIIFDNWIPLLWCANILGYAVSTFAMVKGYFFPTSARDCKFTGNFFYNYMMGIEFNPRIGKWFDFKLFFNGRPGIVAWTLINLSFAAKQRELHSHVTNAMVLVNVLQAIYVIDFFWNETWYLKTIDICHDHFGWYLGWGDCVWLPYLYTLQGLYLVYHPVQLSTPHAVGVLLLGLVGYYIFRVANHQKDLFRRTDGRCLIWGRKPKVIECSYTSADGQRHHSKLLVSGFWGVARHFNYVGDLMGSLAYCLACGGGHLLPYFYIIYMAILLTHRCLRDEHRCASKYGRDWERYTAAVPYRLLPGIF
UniProt P50570: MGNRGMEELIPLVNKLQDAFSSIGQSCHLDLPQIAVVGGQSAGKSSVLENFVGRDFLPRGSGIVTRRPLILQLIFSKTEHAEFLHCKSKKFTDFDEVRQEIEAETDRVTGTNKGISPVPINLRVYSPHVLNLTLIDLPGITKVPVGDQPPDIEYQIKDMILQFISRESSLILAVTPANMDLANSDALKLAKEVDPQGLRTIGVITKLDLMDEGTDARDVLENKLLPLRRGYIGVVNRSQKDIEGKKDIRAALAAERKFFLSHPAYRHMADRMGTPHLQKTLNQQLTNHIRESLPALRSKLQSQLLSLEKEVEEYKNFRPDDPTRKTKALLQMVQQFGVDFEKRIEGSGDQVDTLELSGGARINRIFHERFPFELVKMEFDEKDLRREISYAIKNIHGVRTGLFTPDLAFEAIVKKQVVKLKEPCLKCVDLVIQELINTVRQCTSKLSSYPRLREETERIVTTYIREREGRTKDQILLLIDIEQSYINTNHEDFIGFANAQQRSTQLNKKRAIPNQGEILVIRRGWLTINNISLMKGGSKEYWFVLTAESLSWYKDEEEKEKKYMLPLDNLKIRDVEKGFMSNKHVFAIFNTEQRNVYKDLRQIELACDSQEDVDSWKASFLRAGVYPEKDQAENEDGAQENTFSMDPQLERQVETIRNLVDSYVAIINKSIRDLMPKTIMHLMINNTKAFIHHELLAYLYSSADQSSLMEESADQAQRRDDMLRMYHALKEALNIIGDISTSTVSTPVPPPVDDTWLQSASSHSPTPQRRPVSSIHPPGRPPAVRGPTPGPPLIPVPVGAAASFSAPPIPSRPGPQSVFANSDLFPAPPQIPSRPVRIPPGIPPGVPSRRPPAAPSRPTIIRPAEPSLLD
UniProt Q99704: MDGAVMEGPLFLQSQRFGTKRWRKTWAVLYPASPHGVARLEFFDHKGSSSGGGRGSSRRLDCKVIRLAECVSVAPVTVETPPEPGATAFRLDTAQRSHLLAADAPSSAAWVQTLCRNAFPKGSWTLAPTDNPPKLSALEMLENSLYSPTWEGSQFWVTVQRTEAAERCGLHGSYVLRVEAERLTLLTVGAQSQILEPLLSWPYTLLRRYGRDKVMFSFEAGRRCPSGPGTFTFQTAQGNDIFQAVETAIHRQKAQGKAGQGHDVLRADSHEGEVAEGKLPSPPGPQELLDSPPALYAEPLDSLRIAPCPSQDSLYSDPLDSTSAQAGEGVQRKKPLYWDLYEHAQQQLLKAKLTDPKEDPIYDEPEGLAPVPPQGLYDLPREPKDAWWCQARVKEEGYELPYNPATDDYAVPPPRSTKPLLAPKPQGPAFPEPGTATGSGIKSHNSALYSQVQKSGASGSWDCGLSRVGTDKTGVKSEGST
UniProt Q8WXX5: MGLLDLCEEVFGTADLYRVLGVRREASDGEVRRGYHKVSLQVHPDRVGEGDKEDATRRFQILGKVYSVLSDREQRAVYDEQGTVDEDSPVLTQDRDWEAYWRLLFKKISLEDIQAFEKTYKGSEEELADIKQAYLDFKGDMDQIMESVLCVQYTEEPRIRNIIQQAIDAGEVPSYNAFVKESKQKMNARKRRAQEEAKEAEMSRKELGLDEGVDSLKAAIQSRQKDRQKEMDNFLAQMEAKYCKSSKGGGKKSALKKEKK
UniProt O75907: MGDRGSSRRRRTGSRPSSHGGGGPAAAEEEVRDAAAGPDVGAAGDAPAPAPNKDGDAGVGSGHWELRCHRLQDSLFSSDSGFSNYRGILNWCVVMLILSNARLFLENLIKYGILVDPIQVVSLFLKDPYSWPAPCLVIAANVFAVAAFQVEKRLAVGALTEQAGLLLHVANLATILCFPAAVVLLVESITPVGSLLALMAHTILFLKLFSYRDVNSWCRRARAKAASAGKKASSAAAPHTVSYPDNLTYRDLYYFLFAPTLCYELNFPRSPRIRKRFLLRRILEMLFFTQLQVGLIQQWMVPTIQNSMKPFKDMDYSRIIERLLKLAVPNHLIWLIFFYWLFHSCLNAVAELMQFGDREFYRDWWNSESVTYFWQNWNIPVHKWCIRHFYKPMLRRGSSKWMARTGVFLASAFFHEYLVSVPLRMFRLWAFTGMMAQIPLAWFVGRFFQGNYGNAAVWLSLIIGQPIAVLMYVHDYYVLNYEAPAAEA
UniProt Q99615: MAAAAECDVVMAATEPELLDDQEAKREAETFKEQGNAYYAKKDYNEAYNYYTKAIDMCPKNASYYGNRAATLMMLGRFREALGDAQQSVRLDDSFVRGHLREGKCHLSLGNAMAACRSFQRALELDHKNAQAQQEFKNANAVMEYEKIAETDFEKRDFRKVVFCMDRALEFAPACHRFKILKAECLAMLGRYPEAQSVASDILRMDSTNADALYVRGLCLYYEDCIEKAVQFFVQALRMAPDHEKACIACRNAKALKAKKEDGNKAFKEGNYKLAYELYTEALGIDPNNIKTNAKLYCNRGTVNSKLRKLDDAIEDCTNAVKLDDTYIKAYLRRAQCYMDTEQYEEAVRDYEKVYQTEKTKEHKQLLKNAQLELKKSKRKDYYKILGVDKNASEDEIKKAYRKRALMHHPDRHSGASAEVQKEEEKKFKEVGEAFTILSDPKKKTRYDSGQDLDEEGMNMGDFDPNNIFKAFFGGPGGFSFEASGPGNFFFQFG
UniProt Q6XZF7: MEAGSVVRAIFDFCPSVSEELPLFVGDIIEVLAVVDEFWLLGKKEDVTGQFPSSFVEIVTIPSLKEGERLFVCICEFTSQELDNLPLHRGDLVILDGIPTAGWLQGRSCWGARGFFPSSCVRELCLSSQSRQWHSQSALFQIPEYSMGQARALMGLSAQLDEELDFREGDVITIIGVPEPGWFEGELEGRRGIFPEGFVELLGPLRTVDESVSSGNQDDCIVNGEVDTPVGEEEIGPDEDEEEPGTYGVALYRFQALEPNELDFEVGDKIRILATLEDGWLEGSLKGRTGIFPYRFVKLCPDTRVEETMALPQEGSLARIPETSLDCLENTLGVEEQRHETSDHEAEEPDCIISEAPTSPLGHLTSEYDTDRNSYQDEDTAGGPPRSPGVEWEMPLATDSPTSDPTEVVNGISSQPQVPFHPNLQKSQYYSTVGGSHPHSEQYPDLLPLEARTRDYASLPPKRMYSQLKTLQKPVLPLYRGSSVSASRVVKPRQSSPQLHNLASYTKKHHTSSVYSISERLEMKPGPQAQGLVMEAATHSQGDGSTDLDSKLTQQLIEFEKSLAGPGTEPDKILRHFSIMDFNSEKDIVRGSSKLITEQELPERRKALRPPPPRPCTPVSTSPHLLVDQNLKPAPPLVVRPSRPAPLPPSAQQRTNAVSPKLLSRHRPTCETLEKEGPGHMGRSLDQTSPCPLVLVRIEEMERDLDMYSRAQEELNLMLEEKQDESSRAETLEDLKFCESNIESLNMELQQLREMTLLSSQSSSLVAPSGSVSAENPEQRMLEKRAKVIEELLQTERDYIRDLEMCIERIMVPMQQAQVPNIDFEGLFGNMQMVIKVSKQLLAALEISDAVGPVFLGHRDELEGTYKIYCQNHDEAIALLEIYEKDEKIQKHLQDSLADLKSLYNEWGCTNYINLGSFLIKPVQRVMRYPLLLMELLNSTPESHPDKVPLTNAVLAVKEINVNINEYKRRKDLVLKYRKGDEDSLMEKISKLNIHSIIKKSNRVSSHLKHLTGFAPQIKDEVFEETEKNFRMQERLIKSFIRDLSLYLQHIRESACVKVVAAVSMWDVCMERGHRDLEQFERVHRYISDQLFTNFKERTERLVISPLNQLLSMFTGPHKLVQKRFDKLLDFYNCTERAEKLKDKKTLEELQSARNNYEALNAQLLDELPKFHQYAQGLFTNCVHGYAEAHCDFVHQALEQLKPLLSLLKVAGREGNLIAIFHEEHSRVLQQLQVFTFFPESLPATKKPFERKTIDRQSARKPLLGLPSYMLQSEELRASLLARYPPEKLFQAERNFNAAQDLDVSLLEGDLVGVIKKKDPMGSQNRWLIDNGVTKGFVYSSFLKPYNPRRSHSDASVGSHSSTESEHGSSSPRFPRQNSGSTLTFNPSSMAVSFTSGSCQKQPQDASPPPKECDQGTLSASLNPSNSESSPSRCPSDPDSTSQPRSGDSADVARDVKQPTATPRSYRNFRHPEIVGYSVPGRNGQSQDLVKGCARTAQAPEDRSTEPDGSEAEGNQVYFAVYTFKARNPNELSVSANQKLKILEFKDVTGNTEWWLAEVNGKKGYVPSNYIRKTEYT
UniProt Q9Y2L1: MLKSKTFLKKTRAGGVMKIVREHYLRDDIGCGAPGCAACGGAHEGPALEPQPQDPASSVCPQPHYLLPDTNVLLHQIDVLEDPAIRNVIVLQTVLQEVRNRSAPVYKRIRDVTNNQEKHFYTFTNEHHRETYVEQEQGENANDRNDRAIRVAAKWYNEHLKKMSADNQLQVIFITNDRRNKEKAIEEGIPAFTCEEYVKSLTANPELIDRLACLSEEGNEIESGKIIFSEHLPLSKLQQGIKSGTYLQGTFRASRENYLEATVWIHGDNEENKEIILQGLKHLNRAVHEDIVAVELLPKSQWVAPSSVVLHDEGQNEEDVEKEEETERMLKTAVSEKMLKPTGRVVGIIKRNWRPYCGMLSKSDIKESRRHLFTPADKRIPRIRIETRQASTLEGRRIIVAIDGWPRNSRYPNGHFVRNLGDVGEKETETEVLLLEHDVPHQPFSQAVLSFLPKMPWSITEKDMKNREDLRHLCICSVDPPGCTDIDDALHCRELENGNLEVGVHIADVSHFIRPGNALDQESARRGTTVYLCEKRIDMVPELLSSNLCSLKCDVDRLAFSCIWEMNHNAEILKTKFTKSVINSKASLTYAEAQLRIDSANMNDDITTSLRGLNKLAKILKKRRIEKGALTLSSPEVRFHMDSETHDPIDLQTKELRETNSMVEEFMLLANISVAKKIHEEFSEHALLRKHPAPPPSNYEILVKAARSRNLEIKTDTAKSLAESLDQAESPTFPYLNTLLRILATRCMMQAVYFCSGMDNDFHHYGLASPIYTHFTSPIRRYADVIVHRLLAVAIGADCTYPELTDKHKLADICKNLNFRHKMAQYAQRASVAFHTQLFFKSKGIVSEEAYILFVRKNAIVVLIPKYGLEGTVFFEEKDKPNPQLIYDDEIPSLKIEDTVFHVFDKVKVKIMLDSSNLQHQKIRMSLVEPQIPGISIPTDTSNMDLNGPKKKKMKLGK

Columns and labels:
Test in all cases: log2 fold change, soluble protein after heating vs DMSO (PISA); higher = thermal stabilisation; K562 lysate, 10 uM; active = over 0.2 and 3.5 SD of the protein, either way, in both replicates (recomputed)
vemurafenib = compound: CCCS(=O)(=O)Nc1ccc(F)c(C(=O)c2c[nH]c3ncc(-c4ccc(Cl)cc4)cc23)c1F [vemurafenib]
How it was run: (§1)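 Pellets of K562 cells were dounce-homogenised in PBS pH 7.4 with 1 mM MgCl2, and the crude extract was held at 1 mg/mL protein for a 30 min treatment with 10 μM compound. Aliquots were heated for 3 min over 48°C-58°C and pooled before NP-40 was added to 0.5% at 4°C. The supernatant from 21,000xg for 90 min was quantified by TMTpro 16plex LC-MS/MS with channel sums equalised. Values are reported from duplicates as log-two fold change in thermal stability relative to solvent controls.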

[1] = compound: CCCS(=O)(=O)Nc1ccc(F)c(C(=O)c2c[nH]c3ncc(Cl)cc23)c1F
How it was run: as §1

barasertib = compound: CCN(CCCOc1ccc2c(Nc3cc(CC(=O)Nc4cccc(F)c4)[nH]n3)ncnc2c1)CCOP(=O)(O)O [barasertib]
How it was run: as §1

[2] = compound: CC[C@@H]1C(=O)N(C)c2cnc(Nc3ccc(C(=O)NC4CCN(C)CC4)cc3OC)nc2N1C1CCCC1
How it was run: as §1

volasertib = compound: CC[C@@H]1C(=O)N(C)c2cnc(Nc3ccc(C(=O)N[C@H]4CC[C@H](N5CCN(CC6CC6)CC5)CC4)cc3OC)nc2N1C(C)C [volasertib]
How it was run: as §1

[3] = compound: CCn1c(C(=O)N(C2CC2)C2CC2)cc2c3c(ncn3C)c(Nc3cc(C)n(C)n3)nc21
How it was run: as §1

[4] = compound: CCn1cc(-c2ccnc3[nH]c(-c4cccc(CN(C)C)c4)cc23)c(-c2ccc(NC(=O)N(C)C)cc2)n1
How it was run: as §1

[5] = compound: CN1CCC(CNc2ccc3ncc(-c4cccc(OC(F)(F)F)c4)n3n2)CC1
How it was run: as §1

saracatinib = compound: CN1CCN(CCOc2cc(OC3CCOCC3)c3c(Nc4c(Cl)ccc5c4OCO5)ncnc3c2)CC1 [saracatinib]
How it was run: as §1

sotrastaurin = compound: CN1CCN(c2nc(C3=C(c4c[nH]c5ccccc45)C(=O)NC3=O)c3ccccc3n2)CC1 [sotrastaurin]
How it was run: as §1

alvocidib = compound: CN1CC[C@H](c2c(O)cc(O)c3c(=O)cc(-c4ccccc4Cl)oc23)[C@H](O)C1 [alvocidib]
How it was run: as §1

Tubastatin A = compound: CN1CCc2c(c3ccccc3n2Cc2ccc(C(=O)NO)cc2)C1 [Tubastatin A]
How it was run: as §1

[6] = compound: CNC(=O)C1=CC=CC=C1NC2=NC(=NC=C2Cl)NC3=C(C=C(C=C3)N4CCOCC4)OC
How it was run: as §1

defactinib = compound: CNC(=O)c1ccc(Nc2ncc(C(F)(F)F)c(NCc3nccnc3N(C)S(C)(=O)=O)n2)cc1 [defactinib]
How it was run: as §1

[7] = compound: CNc1nc(-c2ccc3c(N)n[nH]c3c2)cc(N2C[C@@H](C(=O)NC3CCCCC3)CC[C@H]2C)n1
How it was run: as §1

encorafenib = compound: COC(=O)N[C@@H](C)CNc1nccc(-c2cn(C(C)C)nc2-c2cc(Cl)cc(NS(C)(=O)=O)c2F)n1 [encorafenib]
How it was run: as §1

[8] = compound: COC(=O)[C@H](CCSC)NC(=O)C1=C(C=C(C=C1)NC[C@H](CS)N)C2=CC=CC=C2
How it was run: as §1

alisertib = compound: COc1cc(Nc2ncc3c(n2)-c2ccc(Cl)cc2C(c2c(F)cccc2OC)=NC3)ccc1C(=O)O [alisertib]
How it was run: as §1

[9] = compound: COc1cc2nc(-c3cc(F)ccc3O)nc(N[C@@H]3CNC[C@H]3C(C)(C)O)c2cc1OC
How it was run: as §1

gefitinib = compound: COc1cc2ncnc(Nc3ccc(F)c(Cl)c3)c2cc1OCCCN1CCOCC1 [gefitinib]
How it was run: as §1

Measured: log2 fold change

DIS3L (UniProt Q8TF46)
inactive: vemurafenib -0.033 | [1] 0.075 | barasertib 0.025 | [2] -0.003 | volasertib -0.048 | [3] 0.026 | [4] -0.02 | [5] -0.013 | saracatinib 0.103 | sotrastaurin 0.037 | alvocidib -0.011 | Tubastatin A -0.111 | [6] 0.104 | defactinib -0.019 | [7] 0.078 | encorafenib 0.06 | [8] 0.109 | alisertib 0.014 | [9] -0.062 | gefitinib -0.079

DNPEP (UniProt Q9ULA0)
inactive: vemurafenib 0 | [1] 0.005 | barasertib -0.018 | [2] 0.031 | volasertib 0.004 | [3] -0.024 | [4] -0.028 | [5] 0.036 | saracatinib 0.023 | sotrastaurin -0.016 | alvocidib 0.02 | Tubastatin A 0.054 | [6] -0.021 | defactinib -0.005 | [7] 0.04 | encorafenib 0.006 | [8] -0.037 | alisertib 0.004 | [9] 0.004 | gefitinib -0.026

DHCR24 (UniProt Q15392)
inactive: vemurafenib -0.011 | [1] 0.002 | barasertib 0 | [2] 0.104 | volasertib 0.038 | [3] -0.128 | [4] -0.084 | [5] 0.269 | saracatinib 0.002 | sotrastaurin -0.013 | alvocidib -0.007 | Tubastatin A 0.119 | [6] -0.04 | defactinib -0.027 | [7] 0.238 | encorafenib 0.073 | [8] 0.056 | alisertib -0.004 | [9] -0.003 | gefitinib 0.111

DHRS7 (UniProt Q9Y394)
inactive: vemurafenib 0.082 | [1] -0.009 | barasertib -0.07 | [2] 0.019 | volasertib 0.021 | [3] -0.012 | [4] -0.135 | [5] 0.096 | saracatinib 0.006 | sotrastaurin 0.013 | alvocidib -0.039 | Tubastatin A 0.043 | [6] 0.024 | defactinib -0.039 | [7] 0.115 | encorafenib -0.015 | [8] -0.078 | alisertib 0.032 | [9] -0.039 | gefitinib 0.055

Quoted from above (two entries):
DHCR24 (UniProt Q15392)
inactive: vemurafenib -0.011 | [1] 0.002 | barasertib 0 | [2] 0.104 | volasertib 0.038 | [3] -0.128 | [4] -0.084 | [5] 0.269 | saracatinib 0.002 | sotrastaurin -0.013 | alvocidib -0.007 | Tubastatin A 0.119 | [6] -0.04 | defactinib -0.027 | [7] 0.238 | encorafenib 0.073 | [8] 0.056 | alisertib -0.004 | [9] -0.003 | gefitinib 0.111

DHRS7 (UniProt Q9Y394)
inactive: vemurafenib 0.082 | [1] -0.009 | barasertib -0.07 | [2] 0.019 | volasertib 0.021 | [3] -0.012 | [4] -0.135 | [5] 0.096 | saracatinib 0.006 | sotrastaurin 0.013 | alvocidib -0.039 | Tubastatin A 0.043 | [6] 0.024 | defactinib -0.039 | [7] 0.115 | encorafenib -0.015 | [8] -0.078 | alisertib 0.032 | [9] -0.039 | gefitinib 0.055

Following part:

DHCR7 (UniProt Q9UBM7)
inactive: vemurafenib -0.02 | [1] 0.004 | barasertib 0.029 | [2] -0.061 | volasertib -0.036 | [3] 0.025 | [4] -0.033 | [5] -0.069 | saracatinib 0.017 | sotrastaurin -0.041 | alvocidib -0.008 | Tubastatin A -0.038 | [6] -0.008 | defactinib 0.016 | [7] -0.031 | encorafenib 0.019 | [8] 0.037 | alisertib 0.029 | [9] -0.008 | gefitinib -0.035

DIP2A (UniProt Q14689)
inactive: vemurafenib 0.109 | [1] 0.012 | barasertib 0.051 | [2] -0.02 | volasertib -0.041 | [3] 0.069 | [4] -0.027 | [5] 0.009 | saracatinib -0.012 | sotrastaurin 0.07 | alvocidib 0.022 | Tubastatin A -0.049 | [6] 0.013 | defactinib 0.003 | [7] -0.046 | encorafenib -0.041 | [8] -0.125 | alisertib -0.088 | [9] -0.004 | gefitinib 0.079

DNM2 (UniProt P50570)
inactive: vemurafenib 0.002 | [1] 0.005 | barasertib 0.037 | [2] -0.024 | volasertib -0.043 | [3] 0.029 | [4] -0.012 | [5] 0.013 | saracatinib 0.016 | sotrastaurin 0.001 | alvocidib 0.037 | Tubastatin A -0.051 | [6] 0.024 | defactinib 0.007 | [7] 0.029 | encorafenib -0.004 | [8] 0.061 | alisertib 0.014 | [9] -0.02 | gefitinib 0.006

DOK1 (UniProt Q99704)
inactive: vemurafenib 0.028 | [1] 0.061 | barasertib -0.027 | [2] -0.113 | volasertib -0.026 | [3] 0.021 | [4] -0.055 | [5] 0.101 | saracatinib 0.024 | sotrastaurin 0.029 | alvocidib -0.02 | Tubastatin A -0.135 | [6] 0.059 | defactinib 0.059 | [7] -0.005 | encorafenib -0.007 | [8] 0.044 | alisertib 0.082 | [9] 0.071 | gefitinib -0.102

DNAJC9 (UniProt Q8WXX5)
inactive: vemurafenib -0.027 | [1] 0.002 | barasertib -0.047 | [2] 0.007 | volasertib 0.012 | [3] -0.011 | [4] 0.034 | [5] -0.027 | saracatinib 0.018 | sotrastaurin -0.016 | alvocidib 0.008 | Tubastatin A -0.003 | [6] 0.012 | defactinib -0.014 | [7] 0.026 | encorafenib -0.007 | [8] -0.074 | alisertib 0.023 | [9] -0.01 | gefitinib -0.011

DGUOK (UniProt Q16854)
inactive: vemurafenib 0.056 | [1] 0.024 | barasertib 0.021 | [2] 0.019 | volasertib -0.006 | [3] -0.012 | [4] -0.102 | [5] 0.021 | saracatinib -0.02 | sotrastaurin -0.011 | alvocidib 0.019 | Tubastatin A 0.065 | [6] -0.005 | defactinib -0.018 | [7] 0.023 | encorafenib -0.003 | [8] -0.027 | alisertib -0.02 | [9] 0.011 | gefitinib 0.011

DNAJC21 isoform 3 (UniProt Q5F1R6)
inactive: vemurafenib 0.011 | [1] 0.004 | barasertib 0.022 | [2] -0.008 | volasertib -0.007 | [3] 0.008 | [4] 0.124 | [5] -0.115 | saracatinib 0.009 | sotrastaurin 0.028 | alvocidib 0.052 | Tubastatin A -0.02 | [6] 0.018 | defactinib 0.008 | [7] -0.027 | encorafenib 0.062 | [8] -0.067 | alisertib 0.028 | [9] 0 | gefitinib -0.064

DGAT1 (UniProt O75907)
inactive: vemurafenib 0.034 | [1] -0.028 | barasertib 0.012 | [2] 0.027 | volasertib 0.034 | [3] -0.064 | [4] -0.048 | [5] 0.035 | saracatinib -0.007 | sotrastaurin 0.007 | alvocidib 0.044 | Tubastatin A -0.101 | [6] 0.057 | defactinib -0.033 | [7] 0.102 | encorafenib 0.011 | [8] 0.08 | alisertib 0.206 | [9] 0.011 | gefitinib -0.007

DNAJC7 (UniProt Q99615)
inactive: vemurafenib -0.024 | [1] 0 | barasertib 0.014 | [2] -0.018 | volasertib -0.065 | [3] 0.066 | [4] -0.019 | [5] -0.091 | saracatinib -0.014 | sotrastaurin 0.006 | alvocidib -0.018 | Tubastatin A -0.203 | [6] 0.059 | defactinib 0 | [7] 0.018 | encorafenib 0.08 | [8] 0.028 | alisertib 0.018 | [9] -0.078 | gefitinib 0.018

DNMBP (UniProt Q6XZF7)
inactive: vemurafenib 0.025 | [1] 0.01 | barasertib 0.029 | [2] -0.008 | volasertib 0.024 | [3] -0.066 | [4] 0.172 | [5] -0.139 | saracatinib 0.111 | sotrastaurin 0.046 | alvocidib -0.003 | Tubastatin A -0.082 | [6] 0.035 | defactinib -0.064 | [7] -0.037 | encorafenib 0 | [8] 0.048 | alisertib -0.117 | [9] -0.037 | gefitinib 0.185

DIS3 (UniProt Q9Y2L1)
inactive: vemurafenib 0.01 | [1] 0.02 | barasertib 0.017 | [2] -0.022 | volasertib -0.022 | [3] 0.018 | [4] -0.004 | [5] -0.005 | saracatinib 0.011 | sotrastaurin 0.008 | alvocidib 0.01 | Tubastatin A 0.012 | [6] 0.012 | defactinib -0.015 | [7] 0.021 | encorafenib 0.016 | [8] 0.016 | alisertib 0.008 | [9] 0.014 | gefitinib -0.009
